# Measured values: the supplement of paper PMC8728848
# The other results are listed elsewhere or left out.
# B1: SHCBP1-GST (Homo sapiens), Q8NEM2 (protein)
# chain: MADGSLTGGGLEAAAMAPERMGWAVEQELASLEKGLFQDEDSCSDCSYRDKPGSSLQSFMPEGKTFFPEIFQTNQLLFYERFRAYQDYILADCKASEVQEFTAEFLEKVLEPSGWRAVWHTNVFKVLVEITDVDFAALKAVVRLAEPYLCDSQVSTFTMECMKELLDLKEHRLPLQELWVVFDDSGVFDQTALAIEHVRFFYQNIWRSWDEEEEDEYDYFVRCVEPRLRLHYDILEDRVPSGLIVDYHNLLSQCEESYRKFLNLRSSLSNCNSDSEQENISMVEGLKLYSEMEQLKQKLKLIENPLLRYVFGYQKNSNIQAKGVRSSGQKITHVVSSTMMAGLLRSLLTDRLCQEPGEEEREIQFHSDPLSAINACFEGDTVIVCPGHYVVHGTFSIADSIELEGYGLPDDIVIEKRGKGDTFVDCTGADIKISGIKFVQHDAVEGILIVHRGKTTLENCVLQCETTGVTVRTSAEFLMKNSDLYGAKGAGIEIYPGSQCTLSDNGIHHCKEGILIKDFLDEHYDIPKISMVNNIIHNNEGYGVVLVKPTIFSDLQENAEDGTEENKALKIQTSGEPDVAERVDLEELIECATGKMELCARTDPSEQVEGNCEIVNELIAASTQKGQIKKKRLSELGITQADDNLMSQEMFVGIVGNQFKWNGKGSFGTFLF
# How the values were obtained:
# Test in all cases: glycan array binding signal (z-score within array); higher = stronger binding
# Conditions in all cases: glycan notation: IUPAC condensed, linker removed
# [1] = target: Fuc(a1-2)[GalNAc(b1-3)]Gal
# In short: (§1)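 The binding signal is a Z-score computed within each array and averaged over linkers. Arrays of the same protein sequence at different concentrations or buffers were also averaged together. Data originate from 3228 arrays in the Consortium for Functional Glycomics database, kept only where the protein sequence was available.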
# Fuc(a1-3)GlcNAc = target: Fuc(a1-3)GlcNAc
# In short: as §1
# [2] = target: Fuc(a1-3)[Gal(b1-4)]Glc6S
# In short: as §1
# [3] = target: Fuc(a1-3)[Gal(b1-4)]GlcNAc
# In short: as §1
# [4] = target: Fuc(a1-3)[Gal(b1-4)]GlcNAc(b1-2)Man
# In short: as §1
# [5] = target: Fuc(a1-3)[Gal(b1-4)]GlcNAc(b1-2)Man(a1-3)[Fuc(a1-3)[Gal(b1-4)]GlcNAc(b1-2)Man(a1-6)]Man(b1-4)GlcNAc(b1-4)GlcNAc
# In short: as §1
# [6] = target: Fuc(a1-3)[Gal(b1-4)]GlcNAc(b1-2)Man(a1-3)[Fuc(a1-3)[Gal(b1-4)]GlcNAc(b1-2)Man(a1-6)]Man(b1-4)GlcNAc(b1-4)[Fuc(a1-6)]GlcNAc
# In short: as §1
# [7] = target: Fuc(a1-3)[Gal(b1-4)]GlcNAc(b1-3)Gal(b1-3)[Fuc(a1-4)]GlcNAc
# In short: as §1
# [8] = target: Fuc(a1-3)[Gal(b1-4)]GlcNAc(b1-3)Gal(b1-4)[Fuc(a1-3)]GlcNAc
# In short: as §1
# [9] = target: Fuc(a1-3)[Gal(b1-4)]GlcNAc(b1-3)Gal(b1-4)[Fuc(a1-3)]GlcNAc(b1-3)Gal(b1-4)[Fuc(a1-3)]GlcNAc
# In short: as §1
# [10] = target: Fuc(a1-3)[Gal(b1-4)]GlcNAc(b1-3)GalNAc
# In short: as §1
# [11] = target: Fuc(a1-3)[Gal(b1-4)]GlcNAc(b1-6)GalNAc
# In short: as §1
# [12] = target: Fuc(a1-3)[Gal(b1-4)]GlcNAc(b1-6)[Gal(b1-3)GlcNAc(b1-3)]Gal(b1-4)Glc
# In short: as §1
# [13] = target: Fuc(a1-3)[Gal(b1-4)]GlcNAc6S
# In short: as §1
# [14] = target: Fuc(a1-3)[Gal3S(b1-4)]Glc
# In short: as §1
# [15] = target: Fuc(a1-3)[Gal3S(b1-4)]GlcNAc
# In short: as §1
# [16] = target: Fuc(a1-3)[Gal3S(b1-4)]GlcNAc6S
# In short: as §1
# [17] = target: Fuc(a1-3)[GalNAc(b1-4)]GlcNAc
# In short: as §1
# [18] = target: Fuc(a1-3)[GalNAc(b1-4)]GlcNAc6S
# In short: as §1
# Fuc(a1-4)GlcNAc = target: Fuc(a1-4)GlcNAc
# In short: as §1
# Fuc(b1-3)GlcNAc = target: Fuc(b1-3)GlcNAc
# In short: as §1
# Gal(a1-2)Gal = target: Gal(a1-2)Gal
# In short: as §1
# Gal(a1-3)Gal = target: Gal(a1-3)Gal
# In short: as §1
# Gal(a1-3)Gal(b1-3)GlcNAc = target: Gal(a1-3)Gal(b1-3)GlcNAc
# In short: as §1
# [19] = target: Gal(a1-3)Gal(b1-3)GlcNAc(b1-2)Man
# In short: as §1
# [20] = target: Gal(a1-3)Gal(b1-3)GlcNAc(b1-2)Man(a1-3)[Gal(a1-3)Gal(b1-3)GlcNAc(b1-2)Man(a1-6)]Man(b1-4)GlcNAc(b1-4)GlcNAc
# In short: as §1
# [21] = target: Gal(a1-3)Gal(b1-3)GlcNAc(b1-3)GalNAc
# In short: as §1
# [22] = target: Gal(a1-3)Gal(b1-3)GlcNAc(b1-6)GalNAc
# In short: as §1
# [23] = target: Gal(a1-3)Gal(b1-3)[Fuc(a1-4)]GlcNAc(b1-2)Man(a1-3)[Gal(a1-3)Gal(b1-3)[Fuc(a1-4)]GlcNAc(b1-2)Man(a1-6)]Man(b1-4)GlcNAc(b1-4)GlcNAc
# In short: as §1
# Gal(a1-3)Gal(b1-4)Glc = target: Gal(a1-3)Gal(b1-4)Glc
# In short: as §1
# Gal(a1-3)Gal(b1-4)GlcNAc = target: Gal(a1-3)Gal(b1-4)GlcNAc
# In short: as §1
# [24] = target: Gal(a1-3)Gal(b1-4)GlcNAc(b1-2)Man
# In short: as §1
# [25] = target: Gal(a1-3)Gal(b1-4)GlcNAc(b1-2)Man(a1-3)[Gal(a1-3)Gal(b1-4)GlcNAc(b1-2)Man(a1-6)]Man(b1-4)GlcNAc(b1-4)GlcNAc
# In short: as §1
# [26] = target: Gal(a1-3)Gal(b1-4)GlcNAc(b1-3)GalNAc
# In short: as §1
# [27] = target: Gal(a1-3)Gal(b1-4)GlcNAc(b1-6)GalNAc
# In short: as §1
# [28] = target: Gal(a1-3)Gal(b1-4)[Fuc(a1-3)]GlcNAc
# In short: as §1
# [29] = target: Gal(a1-3)Gal(b1-4)[Fuc(a1-3)]GlcNAc(b1-2)Man(a1-3)[Gal(a1-3)Gal(b1-4)[Fuc(a1-3)]GlcNAc(b1-2)Man(a1-6)]Man(b1-4)GlcNAc(b1-4)GlcNAc
# In short: as §1
# Gal(a1-3)GalNAc = target: Gal(a1-3)GalNAc
# In short: as §1
# [30] = target: Gal(a1-3)[Gal(a1-4)]Gal(b1-4)GlcNAc
# In short: as §1
# [31] = target: Gal(a1-4)Gal(b1-3)GlcNAc(b1-2)Man(a1-3)[Gal(a1-4)Gal(b1-3)GlcNAc(b1-2)Man(a1-6)]Man(b1-4)GlcNAc(b1-4)GlcNAc
# In short: as §1
# Gal(a1-4)Gal(b1-4)Glc = target: Gal(a1-4)Gal(b1-4)Glc
# In short: as §1
# Gal(a1-4)Gal(b1-4)GlcNAc = target: Gal(a1-4)Gal(b1-4)GlcNAc
# In short: as §1
# [32] = target: Gal(a1-4)Gal(b1-4)GlcNAc(b1-2)Man(a1-3)[Gal(a1-4)Gal(b1-4)GlcNAc(b1-2)Man(a1-6)]Man(b1-4)GlcNAc(b1-4)GlcNAc
# In short: as §1
# [33] = target: Gal(a1-4)Gal(b1-4)GlcNAc(b1-3)Gal(b1-4)Glc
# In short: as §1
# Gal(a1-4)GlcNAc = target: Gal(a1-4)GlcNAc
# In short: as §1
# Gal(a1-6)Glc = target: Gal(a1-6)Glc
# In short: as §1
# Gal(b1-2)Gal = target: Gal(b1-2)Gal
# In short: as §1
# Gal(b1-3)Gal = target: Gal(b1-3)Gal
# In short: as §1
# Gal(b1-3)Gal(b1-4)GlcNAc = target: Gal(b1-3)Gal(b1-4)GlcNAc
# In short: as §1
# Gal(b1-3)GalNAc = target: Gal(b1-3)GalNAc
# In short: as §1
# [34] = target: Gal(b1-3)GalNAc(a1-3)[Fuc(a1-2)]Gal(b1-4)Glc
# In short: as §1
# [35] = target: Gal(b1-3)GalNAc(a1-3)[Fuc(a1-2)]Gal(b1-4)GlcNAc
# In short: as §1
# Gal(b1-3)GalNAc(b1-3)Gal = target: Gal(b1-3)GalNAc(b1-3)Gal
# In short: as §1
# [36] = target: Gal(b1-3)GalNAc(b1-3)Gal(a1-4)Gal(b1-4)Glc
# In short: as §1
# [37] = target: Gal(b1-3)GalNAc(b1-4)Gal(b1-4)Glc
# In short: as §1
# [38] = target: Gal(b1-3)GalNAc(b1-4)[Neu5Ac(a2-3)]Gal(b1-4)Glc
# In short: as §1
# Gal(b1-3)GlcNAc = target: Gal(b1-3)GlcNAc
# In short: as §1
# [39] = target: Gal(b1-3)GlcNAc(a1-3)Gal(b1-4)GlcNAc
# In short: as §1
# [40] = target: Gal(b1-3)GlcNAc(a1-6)Gal(b1-4)GlcNAc
# In short: as §1
# Gal(b1-3)GlcNAc(b1-2)Man = target: Gal(b1-3)GlcNAc(b1-2)Man
# In short: as §1
binder,measurement,setting,value
B1,glycan array binding signal (z-score),[1],-1.05
same,glycan array binding signal (z-score),Fuc(a1-3)GlcNAc,-1.09
same,glycan array binding signal (z-score),[2],0.012
same,glycan array binding signal (z-score),[3],0.037
same,glycan array binding signal (z-score),[4],-0.592
same,glycan array binding signal (z-score),[5],-0.741
same,glycan array binding signal (z-score),[6],0.142
same,glycan array binding signal (z-score),[7],-0.974
same,glycan array binding signal (z-score),[8],0.532
same,glycan array binding signal (z-score),[9],-0.961
same,glycan array binding signal (z-score),[10],2.35
same,glycan array binding signal (z-score),[11],0.077
same,glycan array binding signal (z-score),[12],-0.649
same,glycan array binding signal (z-score),[13],0.613
same,glycan array binding signal (z-score),[14],0.616
same,glycan array binding signal (z-score),[15],-0.161
same,glycan array binding signal (z-score),[16],-0.123
same,glycan array binding signal (z-score),[17],0.35
same,glycan array binding signal (z-score),[18],-0.239
same,glycan array binding signal (z-score),Fuc(a1-4)GlcNAc,-0.788
same,glycan array binding signal (z-score),Fuc(b1-3)GlcNAc,-0.807
same,glycan array binding signal (z-score),Gal(a1-2)Gal,-0.065
same,glycan array binding signal (z-score),Gal(a1-3)Gal,-0.203
same,glycan array binding signal (z-score),Gal(a1-3)Gal(b1-3)GlcNAc,-1.18
same,glycan array binding signal (z-score),[19],-0.123
same,glycan array binding signal (z-score),[20],0.969
same,glycan array binding signal (z-score),[21],-0.114
same,glycan array binding signal (z-score),[22],0.271
same,glycan array binding signal (z-score),[23],0.787
same,glycan array binding signal (z-score),Gal(a1-3)Gal(b1-4)Glc,1.01
same,glycan array binding signal (z-score),Gal(a1-3)Gal(b1-4)GlcNAc,-0.281
same,glycan array binding signal (z-score),[24],0.428
same,glycan array binding signal (z-score),[25],1.56
same,glycan array binding signal (z-score),[26],0.565
same,glycan array binding signal (z-score),[27],0.024
same,glycan array binding signal (z-score),[28],1
same,glycan array binding signal (z-score),[29],0.289
same,glycan array binding signal (z-score),Gal(a1-3)GalNAc,-0.405
same,glycan array binding signal (z-score),[30],0.622
same,glycan array binding signal (z-score),[31],4.1
same,glycan array binding signal (z-score),Gal(a1-4)Gal(b1-4)Glc,0.391
same,glycan array binding signal (z-score),Gal(a1-4)Gal(b1-4)GlcNAc,0.212
same,glycan array binding signal (z-score),[32],0.12
same,glycan array binding signal (z-score),[33],-0.576
same,glycan array binding signal (z-score),Gal(a1-4)GlcNAc,-0.477
same,glycan array binding signal (z-score),Gal(a1-6)Glc,0.63
same,glycan array binding signal (z-score),Gal(b1-2)Gal,0.384
same,glycan array binding signal (z-score),Gal(b1-3)Gal,0.702
same,glycan array binding signal (z-score),Gal(b1-3)Gal(b1-4)GlcNAc,-0.188
same,glycan array binding signal (z-score),Gal(b1-3)GalNAc,-0.251
same,glycan array binding signal (z-score),[34],-0.147
same,glycan array binding signal (z-score),[35],-1.17
same,glycan array binding signal (z-score),Gal(b1-3)GalNAc(b1-3)Gal,-0.407
same,glycan array binding signal (z-score),[36],0.692
same,glycan array binding signal (z-score),[37],-1.04
same,glycan array binding signal (z-score),[38],-0.127
same,glycan array binding signal (z-score),Gal(b1-3)GlcNAc,-0.473
same,glycan array binding signal (z-score),[39],-0.242
same,glycan array binding signal (z-score),[40],-0.335
same,glycan array binding signal (z-score),Gal(b1-3)GlcNAc(b1-2)Man,1.46

# Reformatted: entries from further up
binder	measurement	setting	value
B1	glycan array binding signal (z-score)	[10]	2.35
same	glycan array binding signal (z-score)	[15]	-0.161
same	glycan array binding signal (z-score)	Fuc(b1-3)GlcNAc	-0.807

# Looked up one by one from the list above (two):
binder,measurement,setting,value
B1,glycan array binding signal (z-score),[2],0.012
same,glycan array binding signal (z-score),Gal(b1-3)GlcNAc(b1-2)Man,1.46
